Measurements as given in patent US7687643B2, “Process for preparing 3,3-dimethylindolines” (Amgen Inc., priority 2001, dated 2010).
Some entries share one result that the patent states for a list of compounds. At least one structure is not confirmed: it was looked up by name or label, or the drawing left a doubt.

Test system: Human Umbilical Vein Endothelial cells (VEGF-stimulated)
Experiment: HUVEC proliferation assay, VEGF-stimulated
Assay type: cell-based
Settings: VEGF 50 ng/mL, 72 h, CyQuant; read-out: inhibited VEGF-stimulated HUVEC proliferation at a level
Procedure: Human Umbilical Vein Endothelial cells are purchased from Clonetics, Inc., as cryopreserved cells harvested from a pool of donors. These cells, at passage 1, are thawed and expanded in EBM-2 complete medium, until passage 2 or 3. The cells are trypsinized, washed in DMEM+10% FBS+antibiotics, and spun at 1000 rpm for 10 min. Prior to centrifugation of the cells, a small amount is collected for a cell count. After centrifugation, the medium is discarded, and the cells are resuspended in the appropriate volume of DMEM+10% FBS+antibiotics to achieve a concentration of 3×10^5 cells/mL. Another cell count is performed to confirm the cell concentration. The cells are diluted to 3×10^4 cells/mL in DMEM+10% FBS+antibiotics, and 100 μL of cells are added to a 96-well plate. The cells are incubated at 37° C. for 22 h.
Prior to the completion of the incubation period, compound dilutions are prepared. […]
At the completion of the 72 h incubation period, the medium is removed, and the cells are washed twice with PBS. […] The cells are thawed and analyzed using the CyQuant fluorescent dye (Molecular Probes C-7026), following the manufacturer's recommendations. The plates are read on a Victor/Wallac 1420 workstation at 485 nm/530 nm (excitation/emission). Raw data are collected and analyzed using a 4-parameter fit equation in XLFit. IC50 values are then determined.

O=C(Nc1ccc(C(F)(F)C(F)(F)F)cc1)c1cccnc1NCc1ccnc(OCCCN2CCOCC2)c1 [Example 900]
IC50: < 50 nM
